Assay results: US7148028B2, “Methods and means relating to atherosclerosis” (priority 2001, dated 2006)
“And” between values parts separate entries of the source, which are not always exact repeats. Equal entries are not always repeated. For at least one compound, name, drawing or mass did not settle the structure.

System: anti-Chlamydia abzymes
Assay type: biochemical, human

C[C@@H]1C[C@H]2[C@@H]3CCC4=CC(=O)C=C[C@]4(C)[C@@]3(F)[C@@H](O)C[C@]2(C)[C@@]1(O)C(=O)CO [Dexamethasone]
Anti-Abzyme accivity: 24.5 μM MDA/ml and 20.1 μM MDA/ml
